Laboratory results taken from US20250387426A1 (priority 2024, published 2025).
For at least one compound, name, drawing or mass did not settle the structure.

Experiments:
migraine headache = details: human, in vivo
tension headache = details: human, in vivo

SMILES | benefit as migraine prophylaxis (migraine headache) | benefit of injections for left occipital pain (tension headache)
CCOC(=O)C1=C(COCCN)NC(C)=C(C(=O)OC)C1c1ccccc1Cl (centres unmarked) [amlodipine] | no benefit | 
C[C@@H]1C[C@H]2[C@@H]3CCC4=CC(=O)C=C[C@]4(C)[C@@]3(F)[C@@H](O)C[C@]2(C)[C@@]1(O)C(=O)CO [dexamethasone] |  | helped for several months
